The whole screen tested about 320,000 compounds, of which about 22,000 (6.9%) were called active. The inconclusive results got no clear call from the source; some entries with a clear call stand among them for comparison. Calls follow the shape of the dose curve; as a rule, active = well fitted inhibition curve with a large enough effect; inconclusive = small, poorly fitted or top-dose-only effect, or another doubt; inactive = no such curve, though single readings can be large or run the other way. A potency beside an inconclusive call is a rough fit, not a confirmed value. Where a SMILES comes first, the peptide text is derived from it. The star is where a group is joined. PhAc = O=C(Cc1ccccc1)*; OBn = c1ccc(CO*)cc1
Experiment: Primary qHTS for delayed death inhibitors of the malarial parasite plastid, 96 hour incubation
Settings: P. falciparum luciferase reporter growth; series mostly up to 28.7 µM; activity change, negative = inhibition: at the top concentration
Summary of the method: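 Infected RBCs, 2% Hct / 0.05% parasitemia final; luciferase-reporter P. falciparum; cpd 96 h, 37 C, 5% CO2; luciferase detection reagent; luminescence.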
% is scaled to controls: 0 for no effect and ±100 for the full control effect; potency is read from the fitted curve at half-maximal effect.

Row | SMILES | Potency | activity change, negative = inhibition
1 | CC1(C)C(=O)N(CCN2CCC(C(=O)c3ccc(F)cc3)CC2)c2ccccc21 | inconclusive: 1.65 µM [inhibitor, partial curve, poor fit] | 
2 | CCOC(=O)CSc1nnc(-c2ccco2)n1C |  | inactive: -14.9%
3 | CCOc1cc(S(=O)(=O)N2CC=C(c3ccc(F)cc3)CC2)c(OCC)cc1-n1cnnn1 | inconclusive: 1.85 µM [inhibitor, single point] | 
4 | CCN(Cc1ccccc1)S(=O)(=O)c1ccc(C(=O)N(CCCN(C)C)c2nc3ccc(F)cc3s2)cc1 |  | inactive: 1.93%
5 | CCN1CCN(C(=O)CN(c2ccc(F)c(Cl)c2)S(C)(=O)=O)CC1 | inconclusive: 11.7 µM [inhibitor, single point] | 
6 | CS(=O)(=O)N(CC(=O)N1CCOCC1)c1cccc(Cl)c1Cl | inconclusive: 14.7 µM [inhibitor, single point] | 
7 | CN(C)[C@@H]1C(=O)C(C(=O)NCN2CCCC2)=C(O)[C@@]2(O)C(=O)C3=C(O)c4c(O)cccc4[C@@](C)(O)C3CC12 (stereo partly drawn) |  | inactive: -6.25%
8 | COc1ccccc1NC(=O)CSc1nc(=O)n2cc(C)ccc2n1 |  | inactive: 4.24%
9 | COC(=O)c1ccc(Cn2c(O)c(N=NC(N)=S)c3ccccc32)o1 | inconclusive: 11.7 µM [inhibitor, single point] | 
10 | CCCCCC(=O)Nc1ccc(Cc2ccncc2)cc1 | active: 11.7 µM | 
11 | NC(=O)c1sc2nc(-c3cccs3)ccc2c1N |  | inactive: 108%
12 | Cc1nc2ccccn2c1C(=O)NNS(=O)(=O)c1ccc(C(C)(C)C)cc1 |  | inactive: 4.23%
13 | O=[N+]([O-])[N-][n+]1cnn(Cc2ccc(Cl)cc2)c1 | inconclusive: 3.7 µM [inhibitor, full curve, poor fit] | 
14 | COC(=O)c1ccccc1NC(=O)c1cc([N+](=O)[O-])nn1Cc1ccccc1 | active: 0.657 µM | 
15 | CC(=O)C1=C(C)Nc2ncnn2C1c1ccc(O)cc1 (stereo not drawn) |  | inactive: 5.5%
16 | COc1ccc(C(=O)Nc2ccncc2)cc1[N+](=O)[O-] |  | inactive: 41.2%
17 | COC(=O)c1ccc(NC(=O)CC2C(=O)N(c3ccc(C)cc3)C(=O)N2CC(C)C)cc1 (stereo not drawn) | inconclusive: 14.7 µM [inhibitor, single point] | 
18 | CC(=O)N1CCc2cc(S(=O)(=O)CCC(=O)Nc3ccc4c(c3)OCCO4)ccc21 | inconclusive: 10.4 µM [inhibitor, single point] | 
19 | CCOc1ccc(CCNC(=O)Cn2c(=O)c3cccn3c3cccnc32)cc1 |  | inactive: -17.4%
20 | O=C(/C=C/c1ccc(Cl)c([N+](=O)[O-])c1)c1cccnc1 |  | inactive: 18.1%
21 | CCOc1ccc(S(=O)(=O)N(CC)CC)cc1NC(=O)CSCc1c(C)noc1C | inconclusive: 16.5 µM [inhibitor, single point] | 
22 | O=C(CNC(=O)Cc1ccccc1)NCC(=O)OCc1ccccc1 (PhAc-Gly-Gly-OBn) | inconclusive: 16.5 µM [inhibitor, partial curve, poor fit] | 
23 | O=C(NCCS(=O)(=O)N1CCCCCC1)c1ccccc1 |  | inactive: 6.81%

Row | SMILES | Potency | activity change, negative = inhibition
24 | COc1ccc(-c2csc3ncnc(N4CCN(c5ccccc5)CC4)c23)cc1 | inconclusive: 7.38 µM [inhibitor, partial curve] | 
25 | CCc1noc(C)c1C(=O)Nc1nc(-c2ccc(OC)cc2)cs1 | inconclusive: 3.29 µM [inhibitor, partial curve, poor fit] | 
26 | COc1ccc(S(=O)(=O)N2CCOCC2)cc1NC(=O)CSc1cccc[n+]1[O-] |  | inactive: 0%
27 | N#CCC(CNc1ncc(C(F)(F)F)cc1Cl)OC(=O)c1cccc([N+](=O)[O-])c1 (stereo not drawn) | active: 4.65 µM | 
28 | COc1cc2c(C(=O)O)c(C)n(C)c2cc1Br | inconclusive: 0.415 µM [inhibitor, full curve, poor fit] | 
29 | COc1cc2nc(/C=C/c3ccc(N(C)C)cc3)sc2cc1SC | inconclusive: 18.5 µM [inhibitor, single point] | 
30 | O=C(Nc1cccc(Cl)c1)OCCOc1ccccc1 | inconclusive: 18.5 µM [inhibitor, single point] | 
31 | CCOC(=O)N1CCN(C(=O)CS(=O)(=O)Cc2nc(-c3ccccc3C)oc2C)CC1 | inconclusive: 18.5 µM [inhibitor, single point] | 
32 | CCOC(=O)C1CCCN(c2cc(C)nc3cc(-c4ccc(Cl)cc4)nn23)C1 (stereo not drawn) | inconclusive: 18.5 µM [inhibitor, single point] | 
33 | c1cc(-c2cccs2)nc(-c2cccs2)c1 |  | inactive: 13.2%
34 | COc1ccc(NC(=O)/C=C/c2ccccc2)c([N+](=O)[O-])c1 | inconclusive: 10.4 µM [inhibitor, partial curve, poor fit] | 
35 | O=C(NCc1ccccc1)NC1(C(=O)Nc2ccc3c(c2)OCCO3)CCCCC1 | inconclusive: 1.47 µM [inhibitor, full curve, poor fit] | 
36 | CC1CCN(C2=NN3C(=N)/C(=C\c4ccc(OC(=O)c5ccco5)cc4)C(=O)N=C3S2)CC1 | inconclusive: 11.7 µM [inhibitor, single point] | 
37 | COc1ccc(NC(=O)Cn2nnc(-c3ccc(CN4CCOCC4)cc3)n2)c(OC)c1 | inconclusive: 10.4 µM [inhibitor, partial curve] | 
38 | CCOC(=O)c1nn(-c2ccc(OCC)cc2)c2nc(CC(C)C)c(C#N)c(=O)n12 | inconclusive: 9.28 µM [inhibitor, single point] | 
39 | Cc1cc(C(=O)CSc2nnc(-c3cccs3)o2)c(C)n1-c1ccccc1 | inconclusive: 20.8 µM [inhibitor, partial curve, poor fit] | 
40 | COc1ccc2c(c1)C(=O)c1ccccc1CO2 | inconclusive: 1.65 µM [inhibitor, partial curve, poor fit] | 
41 | Cc1c(NC(=O)C2CC(c3c(F)cccc3Cl)=NO2)c(=O)n(-c2ccccc2)n1C (stereo not drawn) |  | inactive: 14.4%
42 | c1ccc(Cn2nnnc2C(c2ccccc2)N2CCN(c3nc4ccccc4s3)CC2)cc1 (stereo not drawn) |  | inactive: -2.28%
43 | CC1CCN(c2ccc3nnc(CCC(=O)Nc4cccc(F)c4)n3n2)CC1 | inconclusive: 11.7 µM [inhibitor, single point] | 
44 | Nc1c(C(=O)OCC(=O)Nc2ccc(OC(F)F)cc2)[nH]c(=O)[nH]c1=O |  | inactive: 46.1%
45 | O=C(O)c1cc(S(=O)(=O)Nc2ccc(N3CCCCC3)cc2)ccc1Cl |  | inactive: -6.22%
46 | N#Cc1cncc(C#Cc2ccccc2)c1 | inconclusive: 0.828 µM [inhibitor, partial curve, poor fit] | 

Row | SMILES | Potency | activity change, negative = inhibition
47 | COc1ccc(-c2sc3cc(OC)c(OC)cc3c2C#CC2(O)CCCCC2)cc1 | inconclusive: 10.4 µM [inhibitor, partial curve, poor fit] | 
48 | O=C(Nc1cccc(-c2nc3ccccc3o2)c1)c1ccc(N2C(=O)C3C4C=CC(C4)C3C2=O)cc1 (stereo not drawn) | inconclusive: 11.7 µM [inhibitor, partial curve, poor fit] | 
49 | CC(CC(=O)NCCc1ccc(F)cc1)c1ccccc1 (stereo not drawn) | inconclusive: 0.037 µM [inhibitor, full curve, poor fit] | 
50 | CC(C)CCc1noc(CN(C)CCC2CCOCC2)n1 |  | inactive: 6.61%
51 | O=C(CCNC(=O)C1CCN(S(=O)(=O)c2ccccc2)CC1)NCCc1cccc(F)c1 | inconclusive: 18.5 µM [inhibitor, single point] | 
52 | O=c1c(Cc2ccc(F)cc2)c(O)ccn1Cc1ccc(Cl)cc1Cl | inconclusive: 11.7 µM [inhibitor, single point] | 
53 | COCC(C)NC(=O)Cc1ccc(Cl)cc1 (stereo not drawn) |  | inactive: 17.4%
54 | O=C(COc1cccc2ccccc12)Nc1ccc(Cl)cc1C(=O)O | inconclusive: 11.7 µM [inhibitor, single point] | 
55 | O=C(NCc1cccnc1)c1ccc(NS(=O)(=O)c2ccc(F)cc2)cc1 | active: 6.57 µM | 
56 | Cc1ccc(N2CC(C(=O)N3CCCCC3)CC2=O)cc1C (stereo not drawn) |  | inactive: -24.4%
57 | O=c1[nH]c2cc3c(cc2cc1C(c1nnnn1C1CCCCC1)N1CCSCC1)OCCO3 (stereo not drawn) |  | inactive: 5.05%
58 | CCOc1ccccc1-c1nc(-c2ccc(NC(=O)c3ccc(Br)o3)cc2)no1 |  | inactive: 28.9%
59 | Cc1[nH]c2ccccc2c1CCN(Cc1cccnc1)C(=S)Nc1cccc(F)c1 | inconclusive: 9.28 µM [inhibitor, partial curve, poor fit] | 
60 | COC(=O)CSc1nc(C)c(C)c(C)c1C(N)=O | inconclusive: 18.5 µM [inhibitor, single point] | 
61 | C=CCNC(=S)N/N=C/c1cccc([N+](=O)[O-])c1 | inconclusive: 0.0586 µM [inhibitor, full curve, poor fit] | 
62 | O=C(NNS(=O)(=O)c1ccccc1)c1cccnc1 | inconclusive: 13.1 µM [inhibitor, single point] | 
63 | C=Cc1c(C)/c2[n-]/c1=C\c1[n-]c(c(CC)c1C)/C=c1\[n-]c3c(c1C)C(=O)C(C(=O)[O-])C=3c1[n-]c(c(C)c1CCC(=O)[O-])\C=2.[Cu].[Na+].[Na+] (stereo not drawn) | inconclusive: 15.1 µM [inhibitor, single point] | 
64 | COc1ccc(C(C[N+](=O)[O-])c2c(C)cc3ccccn23)c(OC)c1 (stereo not drawn) | inconclusive: 18.5 µM [inhibitor, single point] | 
65 | CCOc1ccc(-c2nonc2NC(=O)c2ccco2)cc1OCC | inconclusive: 16.5 µM [inhibitor, single point] | 
66 | COc1ccc(C(=O)C2CCCN(Cc3cccc4c3OCO4)C2)cc1OC (stereo not drawn) | inconclusive: 18.5 µM [inhibitor, single point] | 
67 | CN(C)CCCN(C(=O)c1ccc(S(=O)(=O)N(C)C2CCCCC2)cc1)c1nc2ccc(Br)cc2s1 | inconclusive: 16.5 µM [inhibitor, partial curve, poor fit] | 
68 | CN1CCC(N(C)C(=O)c2cc(-c3ccccc3Cl)nc3ccccc23)CC1 | inconclusive: 18.5 µM [inhibitor, single point] | 

Ordered by molecular weight (falling): 3 of the compounds above.
Row | SMILES | Potency | activity change, negative = inhibition
59 | Cc1[nH]c2ccccc2c1CCN(Cc1cccnc1)C(=S)Nc1cccc(F)c1 | inconclusive: 9.28 µM [inhibitor, partial curve, poor fit] | 
54 | O=C(COc1cccc2ccccc12)Nc1ccc(Cl)cc1C(=O)O | inconclusive: 11.7 µM [inhibitor, single point] | 
60 | COC(=O)CSc1nc(C)c(C)c(C)c1C(N)=O | inconclusive: 18.5 µM [inhibitor, single point] | 

— PubChem BioAssay AID504834 (National Center for Advancing Translational Sciences (NCATS), 2011)
